Measured values reported in patent US9645128B2, “Substituted imidazo[1,2-A]pyrazines for measuring a transcription activity” (JNC CORPORATION, priority 2009, dated 2017).

System: Gaussia luciferase
Experiment: Substrate specificity, luminescence activity and emission spectra of Gaussia luciferase
Conditions: 22 to 25° C.

Question: With “coelenterazine [CTZ, reference compound]” as the molecule, how does the “Maximum emission wavelength λmax (nm)” value read?
Answer: The value was 473.0 nm.

Question: For et-coelenterazine [et-CTZ], which “Maximum emission wavelength λmax (nm)” value is on record?
Answer: Its value is 476.0 nm.

Question: How did the “Maximum emission wavelength λmax (nm)” value turn out when O=c1c(Cc2ccc(C(F)(F)F)cc2)nc2c(Cc3ccccc3)[nH]c(-c3ccc(O)cc3)cn1-2 [cf3-CTZ, cf3-coelenterazine] was run?
Answer: The value was 476.5 nm.

Question: How did the “Maximum emission wavelength λmax (nm)” value turn out when “i-coelenterazine [i-CTZ, reference compound]” was run?
Answer: The value was 475.0 nm.

Question: How did the “Maximum emission wavelength λmax (nm)” value turn out when COc1cccc(Cc2nc3c(Cc4ccccc4)[nH]c(-c4ccc(O)cc4)cn-3c2=O)c1 [3meo-CTZ, 3meo-coelenterazine] was run?
Answer: The value was 474.5 nm.

Question: For Oc1ccc(-c2cn3c(O)c(Cc4ccccc4)nc3c(Cc3ccccc3)n2)cc1 [h-CTZ, h-coelenterazine, reference compound], which “Maximum emission wavelength λmax (nm)” value is on record?
Answer: Its value is 474.0 nm.

Question: CC(c1ccccc1)c1nc2c(Cc3ccccc3)[nH]c(-c3ccc(O)cc3)cn-2c1=O (centres unmarked) [αmeh-CTZ, αmeh-coelenterazine] was tested. Which “Maximum emission wavelength λmax (nm)” value did it give?
Answer: The value was 473.0 nm.

Question: With COc1ccc(Cc2nc3c(Cc4ccccc4)[nH]c(-c4ccc(O)cc4)cn-3c2=O)cc1 [meo-CTZ, meo-coelenterazine] as the molecule, how does the “Maximum emission wavelength λmax (nm)” value read?
Answer: The value was 475.5 nm.

Question: How did the “Maximum emission wavelength λmax (nm)” value turn out when O=c1c(Cc2cccc(O)c2)nc2c(Cc3ccccc3)[nH]c(-c3ccc(O)cc3)cn1-2 [3iso-CTZ, 3-isocoelenterazine] was run?
Answer: Its value is 477.0 nm.

Question: Cc1cccc(Cc2nc3c(Cc4ccccc4)[nH]c(-c4ccc(O)cc4)cn-3c2=O)c1 [3me-CTZ, 3me-coelenterazine] was tested. Which “Maximum emission wavelength λmax (nm)” value did it give?
Answer: Its value is 475.5 nm.

Question: With Cc1ccc(Cc2nc3c(Cc4ccccc4)[nH]c(-c4ccc(O)cc4)cn-3c2=O)cc1 [me-CTZ, me-coelenterazine] as the molecule, how does the “Maximum emission wavelength λmax (nm)” value read?
Answer: Its value is 475.0 nm.
